Laboratory results from PubChem BioAssay AID504467 (National Center for Advancing Translational Sciences (NCATS), 2011).
The whole screen tested about 330,000 compounds, of which about 7,700 (2.3%) were called active. The inconclusive results got no clear call from the source; some entries with a clear call stand among them for comparison. Calls come from the whole dose curve; as a rule, active = well fitted inhibition curve with a large enough effect; inconclusive = small, poorly fitted or top-dose-only effect, or effect the other way; inactive = flat fitted curve, though single readings scatter. Where the call is inconclusive, the potency comes from a doubtful curve fit.

assay: qHTS screen for small molecules that inhibit ELG1-dependent DNA repair in human embryonic kidney (HEK293T) cells expressing luciferase-tagged ELG1; conditions: HEK293T ELG1-luciferase reporter, luminescence, 16 h, DNA damage induced by 5-fluorouridine; activity change, negative = inhibition: at 46.1 µM (top of the series); note: nearly all actives have a fitted effect of over 55% in size
Summary of the method: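 DMSO vehicle served as the neutral condition. Each well held 2,000 cells given 5-fluorouridine plus compound; after 16 hr at 37 °C/5% CO2, ONE-Glo was added and luciferase measured 30 min later.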
% is set by controls: 0 for no effect and ±100 for the full control effect; potency is the fitted concentration of half-maximal effect.

With `CCOc1ccc(N2CC(C(=O)N3CCCc4ccccc43)CC2=O)cc1` (configuration not stated) as the molecule, how does the Potency read?
The Potency was inconclusive: 29.1 µM [activator, single point].

Which “activity change, negative = inhibition” value does the source give for `CCCc1ccc(C2=Nn3c(nnc3C(C)C)SC2)cc1` here?
Its value is inactive: -17.3%.

For `O=C1C2CCCCN2C(=O)N1CCCCN1CCN(c2cccc(Cl)c2)CC1` (configuration not stated), which Potency is on record?
Its Potency is inconclusive: 0.708 µM [inhibitor, single point].

With `O=C(COC(=O)C1CC2CCCC(C1)C2=O)NNC(=O)c1ccccc1Br` (configuration not stated) as the molecule, how does the “activity change, negative = inhibition” value read?
The value was inactive: 0%.

Which Potency does the source give for `COc1ccc2nc(NC(=O)C34CC5CC(CC(NC(C)=O)(C5)C3)C4)sc2c1` here?
The Potency was inconclusive: 6.51 µM [activator, partial curve, poor fit].

For `C=CCn1c(=O)c2ccc(C(=O)NCc3ccccc3)cc2n(Cc2ccc(C)cc2)c1=O`, which Potency is on record?
Its Potency is inconclusive: 23.1 µM [activator, partial curve].

With `CCOc1cc(NS(=O)(=O)c2ccc(Cl)cc2)c(OCC)cc1NC(=O)CC(C)C` as the molecule, how does the Potency read?
Its Potency is inconclusive: 29.1 µM [inhibitor, single point].

Which Potency does the source give for `NS(=O)(=O)c1ccc(NC(=S)Nc2ccc(OCc3ccccc3)cc2)cc1` here?
Its Potency is inconclusive: 2.06 µM [activator, partial curve, poor fit].

For `O=C(Nc1ccccc1-c1ccccc1)C1CCCC1`, which “activity change, negative = inhibition” value is on record?
Its value is inactive: -4.92%.

For `CS(=O)(=O)N(CC(=O)NCc1ccccc1)C1CCCCC1`, which Potency is on record?
Its Potency is inconclusive: 0.0164 µM [inhibitor, full curve, poor fit].

With `CCOc1cccc(CN2CCCC(C(=O)c3cc(Cl)ccc3OC)C2)c1O` (configuration not stated) as the molecule, how does the Potency read?
The Potency was inconclusive: 8.2 µM [inhibitor, partial curve].

With `COc1cccc(C(=O)Nc2cccc(NC(C)=O)c2)c1` as the molecule, how does the Potency read?
Its Potency is inconclusive: 20.6 µM [activator, single point].

With `COC(=O)c1ccc(N2CCC(C)CC2)c(N)c1` as the molecule, how does the Potency read?
Its Potency is inconclusive: 18.4 µM [activator, partial curve].

With `O=C1N[C@@H](Cc2c[nH]c3ccccc23)COC(=O)[C@@H](Cc2ccc(F)cc2)CC/C=C/C[C@@H]1CC(=O)N(CCO)Cc1ccccc1` as the molecule, how does the Potency read?
Its Potency is active: 20.6 µM.

With `Cc1c(C(=O)N2CCN(c3ccccn3)CC2)oc2c1C(=O)CC(C)(C)C2` as the molecule, how does the Potency read?
The Potency was inconclusive: 16.4 µM [inhibitor, partial curve].

Which Potency does the source give for `COc1cc(N)c(Cl)cc1C(=O)OCC(=O)N(C)C1CCCCC1` here?
The Potency was inconclusive: 35.5 µM [activator, single point].

Which Potency does the source give for `Cc1ccc(C)c(OCc2ccc(C(=O)NN)o2)c1` here?
The Potency was inconclusive: 18.3 µM [inhibitor, single point].

Which “activity change, negative = inhibition” value does the source give for `Cc1cc(C)n(-c2nc3ccccc3nc2N2CCCCCC2)n1` here?
The value was inactive: 0.664%.

Which Potency does the source give for `Fc1ccc2cc(CCO[C@H]3CCCCO3)ncc2c1` here?
Its Potency is inconclusive: 2.06 µM [activator, full curve].

With `C[C@H](CO)N1C[C@H](C)[C@@H](CN(C)S(=O)(=O)c2cccs2)Oc2ccc(NS(=O)(=O)c3ccc(F)cc3)cc2C1=O` as the molecule, how does the Potency read?
Its Potency is active: 6.51 µM.

Which “activity change, negative = inhibition” value does the source give for `CC(=O)Nc1ccccc1NC(=O)C/C(C)=N/NC(=O)Cc1cccc2ccccc12` here?
The value was inactive: -0.32%.

For `Cc1ccc(-n2cc(C(=O)c3ccc(F)cc3)nn2)cc1Cl`, which Potency is on record?
The Potency was inconclusive: 2.31 µM [activator, partial curve].

Which Potency does the source give for `Cc1[nH]c(=O)[nH]c(=O)c1NC(=O)CSc1ncccc1-c1nc2ccccc2[nH]1` here?
Its Potency is inconclusive: 20.6 µM [activator, single point].

For `Cc1cccc2sc(N(CCCN(C)C)C(=O)c3ccc(S(=O)(=O)N4CCc5ccccc5C4)cc3)nc12`, which Potency is on record?
The Potency was inconclusive: 23.1 µM [activator, single point].

For `Fc1ccccc1COc1ccc(/C=N/n2cnnc2)cc1`, which “activity change, negative = inhibition” value is on record?
Its value is inactive: 2.63%.

Which Potency does the source give for `CCOC(=O)c1c(NC(=O)CN2C(=O)NC3(CCCCC3C)C2=O)sc(C)c1CC` (configuration not stated) here?
The Potency was inconclusive: 4.11 µM [inhibitor, single point].

For `CN(C)c1ccc(-c2cccc(C3CC=CC4C3C(=O)N(Cc3ccccc3)C4c3ccc(C(F)(F)F)cc3)c2)cc1` (configuration not stated), which “activity change, negative = inhibition” value is on record?
Its value is inactive: 8.34%.

With `COc1cc(OC)c(N(C)C(=O)c2cn(C)c(=O)c3cc(OC)c(OC)cc23)cc1Cl` as the molecule, how does the Potency read?
Its Potency is inconclusive: 11.6 µM [inhibitor, partial curve, poor fit].

Which “activity change, negative = inhibition” value does the source give for `Cc1ccc(NC(=O)C(OC(=O)c2ccc(F)cc2)c2ccccc2)cc1Cl` (configuration not stated) here?
The value was inactive: 13%.

Which “activity change, negative = inhibition” value does the source give for `COCCNC(=O)C(c1ccc(C)cc1)N(C(=O)C(=O)NC1CCCC1)c1ccc2c(c1)OCCO2` (configuration not stated) here?
The value was inactive: 3.39%.

Which “activity change, negative = inhibition” value does the source give for `CCN1CCC(Nc2ccnc3cc(Cl)ccc23)CC1` here?
Its value is inactive: 3.68%.

With `N/C(=N\c1nc2ccccc2o1)NC(=O)c1ccc(F)cc1` as the molecule, how does the Potency read?
Its Potency is inconclusive: 29.1 µM [activator, single point].

With `CCc1ccc(N(CC(=O)NCCc2ccccc2)C(=O)CCC(=O)Nc2ccccn2)cc1` as the molecule, how does the “activity change, negative = inhibition” value read?
Its value is inactive: -13.5%.

For `CC(=O)N1CCN(c2ccc(NC(=O)c3ccc([N+](=O)[O-])cc3Cl)cc2)CC1`, which “activity change, negative = inhibition” value is on record?
The value was inactive: -16.5%.

With `N#Cc1c(Nc2ccccc2Cl)s[nH]c1=O` as the molecule, how does the Potency read?
The Potency was inconclusive: 5.8 µM [inhibitor, single point].

Which “activity change, negative = inhibition” value does the source give for `O=[N+]([O-])c1cccc(Cl)c1N1CCOCC1` here?
Its value is inactive: 18%.

For `COc1ccc(S(=O)(=O)NCC(c2cccnc2)N2CCN(c3ccccc3OC)CC2)cc1C` (configuration not stated), which “activity change, negative = inhibition” value is on record?
Its value is inactive: -2.5%.

For `O=C(Nc1ccc2c(c1)OCCO2)c1cc(-c2ccccc2)nc2ccccc12`, which Potency is on record?
Its Potency is inconclusive: 29.1 µM [inhibitor, single point].

Which Potency does the source give for `Cc1ccc(CNC(=O)C2CCC(=O)N(CCc3ccc(Cl)cc3)C2)cc1` (configuration not stated) here?
The Potency was inconclusive: 23.1 µM [activator, partial curve].

With `COc1ccccc1C(=O)Nc1nnc(CCc2ccccc2)s1` as the molecule, how does the “activity change, negative = inhibition” value read?
The value was inactive: -15.8%.

With `CC1(C(=O)O)CCC(C(=O)Nc2ccc(F)cc2)C1(C)C` (configuration not stated) as the molecule, how does the “activity change, negative = inhibition” value read?
Its value is inactive: 5.76%.

With `CC(=O)Nc1ccc(OCCOc2ccc([N+](=O)[O-])cc2)cc1` as the molecule, how does the Potency read?
The Potency was inconclusive: 23.1 µM [inhibitor, single point].

For `Cc1ccc(Cl)cc1N1CCN(S(=O)(=O)c2ccc3[nH]c(=O)c(=O)[nH]c3c2)CC1`, which “activity change, negative = inhibition” value is on record?
Its value is inactive: -11.7%.

With `O=C(Nc1nnc(Cc2ccccc2)s1)c1cccs1` as the molecule, how does the Potency read?
Its Potency is inconclusive: 23.1 µM [activator, partial curve].

Which Potency does the source give for `COc1ccc(S(=O)(=O)Nc2ccccc2C(=O)Nc2nc(-c3ccc(F)cc3)cs2)cc1OC` here?
Its Potency is active: 14.6 µM.

Which Potency does the source give for `O=C(Nc1ccc(Oc2ccccc2)cc1)C1CCCO1` (configuration not stated) here?
Its Potency is inconclusive: 18.4 µM [activator, partial curve].

For `CCc1nnc(NC(=O)CSc2nc3cc4c(cc3cc2C)OCCO4)s1`, which “activity change, negative = inhibition” value is on record?
Its value is inactive: 0.54%.

For `O=C(Cc1ccc(F)cc1)Nc1ccc(F)c([N+](=O)[O-])c1`, which “activity change, negative = inhibition” value is on record?
The value was inactive: -5.95%.

Which “activity change, negative = inhibition” value does the source give for `Cc1cc(C)n(C(=O)CNC(=O)Cc2ccccc2)n1` here?
The value was inactive: -9.19%.

With `CCOC(=O)c1sc(C)c(C(=O)NC2CCCCC2)c1N` as the molecule, how does the Potency read?
The Potency was inconclusive: 14.6 µM [activator, single point].

Which Potency does the source give for `Cc1ccc(-n2nnc(-c3ccnc4ccccc34)n2)cc1` here?
The Potency was inconclusive: 18.3 µM [activator, partial curve].

Which Potency does the source give for `Cc1ccc(NC(=O)c2cc3c(s2)CCCC3)cc1` here?
Its Potency is inconclusive: 4.11 µM [activator, full curve].

With `O=[N+]([O-])c1ccc(C(=S)N2CCCC2)cc1` as the molecule, how does the Potency read?
Its Potency is inconclusive: 32.6 µM [activator, partial curve, poor fit].

Which “activity change, negative = inhibition” value does the source give for `CCOc1ccc(NC(=O)COc2ccc(S(=O)(=O)N3CCOCC3)cc2)cc1` here?
Its value is inactive: -0.603%.

Which Potency does the source give for `COc1cccc(/C=C/c2onc(C)c2S(=O)(=O)N2CCC(C(=O)NC3CCCCCC3)CC2)c1` here?
The Potency was inconclusive: 6.51 µM [inhibitor, single point].

For `CCCC(=O)NC(c1ccco1)c1cc([N+](=O)[O-])c2cccnc2c1O` (configuration not stated), which Potency is on record?
The Potency was active: 20.6 µM.

For `COc1ccccc1C(C)NC(=O)CN(C)CC(=O)Nc1c(C)cccc1C` (configuration not stated), which “activity change, negative = inhibition” value is on record?
The value was inactive: -0.212%.

With `COc1cc(C(=O)c2cocc2C(=O)c2ccc3c(c2)OCO3)cc(OC)c1OC` as the molecule, how does the Potency read?
Its Potency is inconclusive: 0.92 µM [inhibitor, full curve].

Which “activity change, negative = inhibition” value does the source give for `O=C(CSC1=Nc2ccccc2C2=NC(Cc3c[nH]c4ccccc34)C(=O)N12)NC1CCCCC1` (configuration not stated) here?
Its value is inactive: 8.11%.

Which Potency does the source give for `O=C(CN(Cc1cccs1)S(=O)(=O)c1ccc(S(=O)(=O)NC2CCCCC2)cc1)Nc1ccccc1` here?
The Potency was inconclusive: 29.1 µM [inhibitor, single point].

Which “activity change, negative = inhibition” value does the source give for `COc1cccc(CC(=O)Nc2nc3ccccc3[nH]2)c1` here?
Its value is inactive: 0%.

Which “activity change, negative = inhibition” value does the source give for `CCC(C)NS(=O)(=O)c1ccc(NC(=O)C2CCN(C(=O)c3ccco3)CC2)cc1` (configuration not stated) here?
Its value is inactive: 0%.

Which Potency does the source give for `CCc1noc(C)c1C(=O)Nc1nc(-c2ccc(OC)c(OC)c2)cs1` here?
The Potency was inconclusive: 7.94 µM [inhibitor, partial curve, poor fit].

With `C=C1CC(C(=O)N/N=C/c2ccc(O)cc2)C1` as the molecule, how does the Potency read?
The Potency was inconclusive: 16.4 µM [activator, single point].

With `N#C/C(=C/c1ccc(-c2ccccc2)o1)c1nc(-c2cccs2)cs1` as the molecule, how does the Potency read?
Its Potency is inconclusive: 23.1 µM [activator, single point].

Which “activity change, negative = inhibition” value does the source give for `COc1ccc(NC(=O)/C(=C/c2cccs2)NC(=O)c2ccco2)cc1` here?
Its value is inactive: 0%.

For `CCCCn1c(=O)c(CCC(=O)OC(C)C(=O)Nc2cccc(Cl)c2Cl)nc2ccccc21` (configuration not stated), which Potency is on record?
The Potency was inconclusive: 29.1 µM [inhibitor, single point].

For `CCN[C@H]1CN(CCCOC)S(=O)(=O)c2sc(S(N)(=O)=O)cc21`, which “activity change, negative = inhibition” value is on record?
Its value is inactive: 12%.

With `COC(=O)c1ccc(CSCc2ccc(C#N)cc2)cc1` as the molecule, how does the Potency read?
Its Potency is inconclusive: 29.1 µM [activator, single point].

Which “activity change, negative = inhibition” value does the source give for `CC1Cc2ccccc2N1C(=O)CSc1nncn1C` (configuration not stated) here?
Its value is inactive: 12.5%.

Which Potency does the source give for `COc1ccccc1/C=C\C=N\NC(=O)c1ccco1` here?
Its Potency is inconclusive: 14.6 µM [activator, partial curve].

Which “activity change, negative = inhibition” value does the source give for `Cc1cc(C)c2nc(-c3ccccn3)cc(C(=O)NCCc3ccc(S(N)(=O)=O)cc3)c2c1` here?
Its value is inactive: 13.5%.
